# Measurements taken from publication PMC7819943, “Rice protein-binding microarrays: a tool to detect cis-acting elements near promoter regions in rice”.
# The other results are listed elsewhere or left out.
# Target: T1, OsSMF1 (Oryza sativa, UniProt Q6ZLB0 1-436)
# T1 sequence: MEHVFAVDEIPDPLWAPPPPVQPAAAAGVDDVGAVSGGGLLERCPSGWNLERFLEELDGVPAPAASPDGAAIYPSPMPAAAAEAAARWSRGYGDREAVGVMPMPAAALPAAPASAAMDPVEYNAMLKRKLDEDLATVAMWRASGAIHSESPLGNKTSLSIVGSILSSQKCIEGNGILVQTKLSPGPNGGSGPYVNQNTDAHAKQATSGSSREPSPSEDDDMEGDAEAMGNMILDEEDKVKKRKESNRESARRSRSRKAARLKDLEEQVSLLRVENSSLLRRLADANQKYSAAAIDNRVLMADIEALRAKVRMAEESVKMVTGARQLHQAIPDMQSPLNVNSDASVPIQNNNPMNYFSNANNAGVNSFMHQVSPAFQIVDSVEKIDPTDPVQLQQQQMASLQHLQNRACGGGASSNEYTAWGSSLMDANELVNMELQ
# Assay: protein-binding microarray (RPBM); PBS, 2% BSA, 51.3 ng/ul salmon testes DNA, 50 uM zinc acetate, 200 nM TF, 25 C, 1 h; high values mean tight binding
# Details: protein: recombinant; tags: N-terminal polyhistidine and DsRed monomer fusion (pET32a); chain copies: 2; label: CyDye5-dUTP incorporated in the synthesized complementary strand; 3' TTTTT single-stranded linker to array surface; dsDNA, one strand shown
# How it was run: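 The binding signal for each feature is its fluorescence intensity in arbitrary units. An Axon 4000B scanner was used to read a custom Agilent array that had been made double-stranded with Cy5-dUTP primer extension, blocked with 2% BSA, incubated at 25 °C for 1 h with 200 nM protein in PBS, 2% BSA, salmon testes DNA and 50 µM zinc acetate, and washed. The protein was an N-terminal polyhistidine–DsRed transcription factor fusion from E. coli BL21-CodonPlus, purified on Ni–NTA.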
row,Sequence,binding signal
1,TCCTGCCACCACCACCATGGCACCAGCTCAGCTCAGCTCACGGAGTCACCTAGTGCAG,4240 fluorescence intensity (a.u.)
2,GTTTCTCCACGCATCAAGGACTCAGCTCGGTTTAGTTAGTCGGAGTCACCTAGTGCAG,5340 fluorescence intensity (a.u.)
3,TTTGTGAAAGCAACATATCTCATATTGATCTATCTTACTACGGAGTCACCTAGTGCAG,3190 fluorescence intensity (a.u.)
4,CTATATCAATATGAAATGACGCACTATCTCATTTGTATTGCGGAGTCACCTAGTGCAG,3560 fluorescence intensity (a.u.)
5,TCGACTCTGTGATGACAAATAGACAACACATTTCTCTCATCGGAGTCACCTAGTGCAG,3290 fluorescence intensity (a.u.)
6,CCGCGTCCGCGCCCGTCCCCACGCCACCAGGCGGTCTCCGCGGAGTCACCTAGTGCAG,3240 fluorescence intensity (a.u.)
7,AAGTGGCTCTAAGTGTGCCAAAGTGCGTTCGTGTCGATCGCGGAGTCACCTAGTGCAG,3200 fluorescence intensity (a.u.)
8,TTAGAATCCATCTAATAACAACGTGTCCTTGTTTCCCATTCGGAGTCACCTAGTGCAG,4740 fluorescence intensity (a.u.)
9,TGCGTATGGGATTGGGCTGCAACATGCGCGTGCACCACGTCGGAGTCACCTAGTGCAG,4000 fluorescence intensity (a.u.)
10,GTTGCGTAGGCAGCGGCAACGCATGCACAGTCACACACCCCGGAGTCACCTAGTGCAG,5630 fluorescence intensity (a.u.)
11,GCATCGACGAGCTCCGACGTGGCGGCCGCCAACGACGAGCCGGAGTCACCTAGTGCAG,7640 fluorescence intensity (a.u.)
12,TAGGGAGTCGAGGACGTCATCGTTGAGCTCGCTGATTAGGCGGAGTCACCTAGTGCAG,6510 fluorescence intensity (a.u.)
13,TACATATTCTTGTGTTGTAGACTTGTCACTGTCAGTCTTGCGGAGTCACCTAGTGCAG,4400 fluorescence intensity (a.u.)
14,CCCTAGCTTGAGGCATGCATATAATACAGTGTATGCTATCCGGAGTCACCTAGTGCAG,3150 fluorescence intensity (a.u.)
15,ACTTAATTTAAGTGGCTCCGACTTGACGTACGACTGATCTCGGAGTCACCTAGTGCAG,3560 fluorescence intensity (a.u.)
16,CACGTACGTGACTCGCGCGCTGACGTCATCCGGGCTTCCACGGAGTCACCTAGTGCAG,20300 fluorescence intensity (a.u.)
17,TAACACAACTATTTACTCAGCTCACGTGTTTCATTAACAACGGAGTCACCTAGTGCAG,3340 fluorescence intensity (a.u.)
18,AGTCGCATCTACATTCTACAGCGTCTTCCATTTACTGACGCGGAGTCACCTAGTGCAG,3830 fluorescence intensity (a.u.)
19,GTGCAAGTTTTCTTTTCAATGACAAGGCTATCGATGACGCCGGAGTCACCTAGTGCAG,3780 fluorescence intensity (a.u.)
20,CAAGCCAAGCCAAGTCACACACCGCATGCGCGCGGTAGCACGGAGTCACCTAGTGCAG,4160 fluorescence intensity (a.u.)
21,AACCAGCCACGTAGGCGCCACGTCAGCCAAAACTGCTATCCGGAGTCACCTAGTGCAG,35900 fluorescence intensity (a.u.)
22,TTATAAATATTTCGATTGAATCATATCCTAAACAATCATACGGAGTCACCTAGTGCAG,4660 fluorescence intensity (a.u.)
23,GGGCACGCGACGCGCCATGGCGTCGGCGGCGGAGGCGGTGCGGAGTCACCTAGTGCAG,3280 fluorescence intensity (a.u.)
24,ACGAATGCATGTGTTACCAACAAGTAATGCGTAGTACGGTCGGAGTCACCTAGTGCAG,5060 fluorescence intensity (a.u.)
25,CGCCGGCGCCGCCGAGCTCCACCGCTCCGATCCCACTCCGCGGAGTCACCTAGTGCAG,6650 fluorescence intensity (a.u.)
26,TGCAAACATGTCATTGTCGGTGGGCCCATTCACACTTACCCGGAGTCACCTAGTGCAG,3230 fluorescence intensity (a.u.)
27,GGTTTCTGGCCAACCGACGTCAAGGAAGAAAGGGCTCATGCGGAGTCACCTAGTGCAG,3360 fluorescence intensity (a.u.)

row,Sequence,binding signal
1,ACGTTCGCGCGGAGCGTGACGTAGGCCGTCGTCTCGCACCCGGAGTCACCTAGTGCAG,8420 fluorescence intensity (a.u.)
2,GGCGGGGCCCACACGCCACGCCACGCGGGCCCACCCGCCACGGAGTCACCTAGTGCAG,4730 fluorescence intensity (a.u.)
3,AAATACAAAAGAAAATAGGAGAGGAGGGATACCAGGATTCCGGAGTCACCTAGTGCAG,36100 fluorescence intensity (a.u.)
4,GGCGGCGGGCAGACGACTTGGAGCGGGAGACGGCGACGGGCGGAGTCACCTAGTGCAG,3270 fluorescence intensity (a.u.)
5,GGAGTTGAAATCCAGAATTAACACATGCTCGTGGCGCTGCCGGAGTCACCTAGTGCAG,3480 fluorescence intensity (a.u.)
6,GTGTACTTGTGAAAGCACGTATCCACCGCGTCAGTATATTCGGAGTCACCTAGTGCAG,4070 fluorescence intensity (a.u.)
7,TAAAGTGTCATGAGGTGGCTGCTGATGTGGCATCAAGAATCGGAGTCACCTAGTGCAG,6910 fluorescence intensity (a.u.)
8,CTTCAAGAAGGTTACGCTGACAGAACGGCGACAACGTCCGCGGAGTCACCTAGTGCAG,3220 fluorescence intensity (a.u.)
9,GTGTGTGGATTAGTTGGAAGGATCAGTGCAATTATTGACTCGGAGTCACCTAGTGCAG,3960 fluorescence intensity (a.u.)
10,TACAAAGCCGCGTGGCCCTCCACCTCCGCACGGGTCGCTCCGGAGTCACCTAGTGCAG,3490 fluorescence intensity (a.u.)
11,GAGGCACCCGCGCTAGTACATAAAGCCACCGAGGTGCGATCGGAGTCACCTAGTGCAG,3850 fluorescence intensity (a.u.)
12,TACTCTCGTACTGGTCATTGGGCGGTACACGTGTATCTTTCGGAGTCACCTAGTGCAG,12900 fluorescence intensity (a.u.)
13,ACTGTTCAACGTCACGGAGGGCAGGGTCTCACCAACTCGCCGGAGTCACCTAGTGCAG,3180 fluorescence intensity (a.u.)
14,GGCGACGGTGCACGCCGGCATGACGCTGGACCAGTGCAGGCGGAGTCACCTAGTGCAG,3520 fluorescence intensity (a.u.)
15,AGCGGTTGGAGGTATGTCTTTCTCAGCCGGCTTGTAATCACGGAGTCACCTAGTGCAG,3640 fluorescence intensity (a.u.)
16,CGTTCTAATCCGCAGTCAGTAGAAATCATGGGCAGTCTGCCGGAGTCACCTAGTGCAG,3320 fluorescence intensity (a.u.)
17,ACGGCGGGAACAATTGTGGGCGGTGGCCTTGGCCGAATCGCGGAGTCACCTAGTGCAG,55000 fluorescence intensity (a.u.)
18,TTGTTCCTACAGTGACAGGCTCTGACTGCAGGATGGAAGACGGAGTCACCTAGTGCAG,24400 fluorescence intensity (a.u.)
19,AGGTTCGTGTGCTGATGTGGCAGCCTGACATGTGGGGCCCCGGAGTCACCTAGTGCAG,20700 fluorescence intensity (a.u.)
20,ACATGGACAGAGATTACCACACGCCACCTCACCGCATCGTCGGAGTCACCTAGTGCAG,9750 fluorescence intensity (a.u.)
21,AAACCACTCAAAGCAAGCAGTGAGTGAACGTGGCAGCTACCGGAGTCACCTAGTGCAG,5480 fluorescence intensity (a.u.)
22,AGCTAGTACGGCTCGACGCCCTCCGCTTGCTCCATTGAGTCGGAGTCACCTAGTGCAG,3260 fluorescence intensity (a.u.)
23,GAATCGAATGTGTGTCAAGTGAGAATACAAATATGATGTGCGGAGTCACCTAGTGCAG,3930 fluorescence intensity (a.u.)
24,AACATCACCGTCATCAAGGCCACCGTCTCCGCCTCCGCCCCGGAGTCACCTAGTGCAG,5910 fluorescence intensity (a.u.)
25,TGATATCTAAATGTTTGCTCATGTGCTATTTACAGCTCAGCGGAGTCACCTAGTGCAG,3810 fluorescence intensity (a.u.)
26,ACGACGACGACCGTGACGCCGCCGACTGCTCCCTCCACTCCGGAGTCACCTAGTGCAG,4250 fluorescence intensity (a.u.)
27,ACTCCATCATCAGTACATACTACATAGTCATCAATCATCACGGAGTCACCTAGTGCAG,3580 fluorescence intensity (a.u.)

# Part of the list above, set out differently.
row	Sequence	binding signal
1	TCCTGCCACCACCACCATGGCACCAGCTCAGCTCAGCTCACGGAGTCACCTAGTGCAG	4240 fluorescence intensity (a.u.)
2	GTTTCTCCACGCATCAAGGACTCAGCTCGGTTTAGTTAGTCGGAGTCACCTAGTGCAG	5340 fluorescence intensity (a.u.)
3	TTTGTGAAAGCAACATATCTCATATTGATCTATCTTACTACGGAGTCACCTAGTGCAG	3190 fluorescence intensity (a.u.)
4	CTATATCAATATGAAATGACGCACTATCTCATTTGTATTGCGGAGTCACCTAGTGCAG	3560 fluorescence intensity (a.u.)
